Data taken from publication doi:10.1101/2024.10.01.616059 (bioRxiv, 2024).
Results are given in words; binding and its absence hold for the method and conditions named. Binding seen in cells or lysates may run through a third protein. A yes stands for co-enrichment or nearness to the bait. Other partners may have been found. Where a sequence is shown, tags or fusion partners need not be part of it.

Key:
Test in all cases: affinity purification with mass spectrometry; GFP immunoprecipitation (GFP-Trap magnetic particles) from lysates of NIH3T3 cells stably expressing GFP-tagged paralogs; lysis 50 mM Tris pH 7.5, 200 mM NaCl, 1% digitonin; washes with 1.5 M NaCl, 0.5% Triton X-100; eluates by Coomassie gel and nanoLC-MS/MS; NES-GFP cells as control
PRPS1-GFP = target: T1, PRPS1-GFP (UniProt Q9D7G0)
T1 sequence: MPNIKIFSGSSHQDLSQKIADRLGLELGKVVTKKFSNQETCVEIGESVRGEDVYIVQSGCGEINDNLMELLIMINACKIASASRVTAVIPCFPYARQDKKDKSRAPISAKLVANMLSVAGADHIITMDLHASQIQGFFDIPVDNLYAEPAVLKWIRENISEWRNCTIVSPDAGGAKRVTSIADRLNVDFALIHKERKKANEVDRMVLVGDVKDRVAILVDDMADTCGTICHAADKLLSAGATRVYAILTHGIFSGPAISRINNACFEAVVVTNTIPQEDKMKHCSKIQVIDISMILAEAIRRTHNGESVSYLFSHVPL

[1] = target: T2, PRPSAP1-GFP (short PRPSAP1 isoform) (UniProt Q14558)
T2 sequence: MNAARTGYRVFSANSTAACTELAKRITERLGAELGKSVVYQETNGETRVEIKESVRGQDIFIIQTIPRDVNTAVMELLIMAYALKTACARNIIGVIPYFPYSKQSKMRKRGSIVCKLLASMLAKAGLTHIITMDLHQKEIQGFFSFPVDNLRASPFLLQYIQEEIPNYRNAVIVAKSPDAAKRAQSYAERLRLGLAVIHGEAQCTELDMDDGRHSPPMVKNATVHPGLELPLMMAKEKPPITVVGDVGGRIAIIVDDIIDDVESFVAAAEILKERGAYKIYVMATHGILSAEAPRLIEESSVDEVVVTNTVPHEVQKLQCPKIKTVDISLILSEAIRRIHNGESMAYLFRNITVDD

[2] = target: T3, PRPSAP2-GFP (long PRPSAP2 isoform) (UniProt O60256)
T3 sequence: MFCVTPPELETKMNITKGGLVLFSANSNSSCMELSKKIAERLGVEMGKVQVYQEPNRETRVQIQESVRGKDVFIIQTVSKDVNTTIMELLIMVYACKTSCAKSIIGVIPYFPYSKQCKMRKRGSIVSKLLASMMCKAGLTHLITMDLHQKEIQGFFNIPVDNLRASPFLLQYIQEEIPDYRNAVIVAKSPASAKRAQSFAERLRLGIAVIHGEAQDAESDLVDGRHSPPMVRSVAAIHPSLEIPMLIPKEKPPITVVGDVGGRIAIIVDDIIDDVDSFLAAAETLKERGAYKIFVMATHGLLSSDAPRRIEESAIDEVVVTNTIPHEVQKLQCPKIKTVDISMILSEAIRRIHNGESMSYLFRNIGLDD

Measured: binding

B1: phosphoribosyl pyrophosphate synthetase 2 (PRPS2), mouse, endogenous (enzyme, UniProt Q9CS42 1-318, looked up)
chain: MPNIVLFSGSSHQDLSQRVADRLGLELGKVVTKKFSNQETSVEIGESVRGEDVYIIQSGCGEINDNLMELLIMINACKIASSSRVTAVIPCFPYARQDKKDKSRAPISAKLVANMLSVAGADHIITMDLHASQIQGFFDIPVDNLYAEPAVLQWIRENITEWRNCIIVSPDAGGAKRVTSIADRLNVEFALIHKERKKANEVDRMVLVGDVKDRVAILVDDMADTCGTICHAADKLLSAGATKVYAILTHGIFSGPAISRINSAAFEAVVVTNTIPQEDKMKHCSKIQVIDISMILAEAIRRTHNGESVSYLFSHVPL
notes: PRPS2, mouse, endogenous protein of NIH3T3 cells and mouse tissue; also called P2; source: endogenous, NIH3T3 (parental and CRISPR knockout clones), native lysate; endogenous, C57BL/6 mouse kidney, native lysate
binds: all assays above
